Results from one PubChem assay

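Living Rh41 pediatric muscle-tumor cells are counted by ATP-driven light output after two days of compound treatment.
Compounds were run as 8- or 11-point dilution series reaching a top final concentration of 46 µM.
The number is the fitted potency (AC50, nM) for loss of viability, and lower values mean a more potent cytotoxic compound.
Calls come from curve class and activity score: active scores 40-100 for well-fitted killing curves, inconclusive scores 1-39 for weak, partial, poorly fitted or top-dose-only curves.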

Values are in nM.
Every entry below has the call inconclusive.
Only part of the assay is shown, chiefly results filed as inconclusive.
Potencies fitted to partial, single-point or poorly fitting curves are rough.
Some entries filed as inconclusive have a full curve.
Activity scores are not listed here.
An entry listed twice with the same setting is a separate test.

compound	potency (nM)	curve as filed
CC(=NNC(=S)N1CCC1)c1ccccn1	23.5	cytotoxic, partial curve, poor fit
COc1ccccc1N1CCN(CC(O)COc2cccc3ccccc23)CC1 (stereo not given)	18654	cytotoxic, partial curve, poor fit
CCCCc1oc2ccccc2c1C(=O)c1cc(I)c(OCCN(CC)CC)c(I)c1	26608	cytotoxic, single point
COc1ccc(-c2c(-c3ccc(O)cc3O)n[nH]c2C)cc1	30340	cytotoxic, partial curve
O=C1c2c(O)cc(O)cc2O[C@H](c2cc(O)c(O)c(O)c2)[C@H]1O	7427	cytotoxic, full curve
CCCCc1ccc(NS(=O)(=O)c2ccc(C)c(C(=O)N3CCN(c4cccc(C)c4C)CC3)c2)cc1	16626	cytotoxic, partial curve
FC(F)(F)c1ccc(Nc2nc3ccc(Oc4ccnc(-c5ncc(C(F)(F)F)[nH]5)c4)cc3[nH]2)cc1	4686	cytotoxic, partial curve
CN1CCN(CCCN2c3ccccc3Sc3ccc(Cl)cc32)CC1	1482	cytotoxic, full curve
NCCc1cnc[nH]1	16626	cytotoxic, partial curve, poor fit
COP(=S)(OC)SCN1C(=O)c2ccccc2C1=O	18837	cytotoxic, single point
CCNc1cc(NC2CCC(O)CC2)nc(Nc2ccc3c(ccn3Cc3ccccc3)c2)n1 (stereo not given)	18654	cytotoxic, partial curve
C[C@]1(c2nc3c(C(N)=O)cccc3[nH]2)CCCN1	11770	cytotoxic, partial curve, poor fit
CC(=O)OCC(=O)[C@@]12OC(C)(C)O[C@H]1C[C@H]1[C@@H]3C[C@H](F)C4=CC(=O)C=C[C@]4(C)[C@@]3(F)[C@@H](O)C[C@@]12C	37221	cytotoxic, partial curve, poor fit
CCCCCCCC/C=C\CCCCCCCC(=O)NCc1ccc(O)c(OC)c1	18837	cytotoxic, single point
CS(=O)(=O)c1ccc(-c2cn3ccccc3n2)cc1	16788	cytotoxic, partial curve
CC(C)(N)C(=O)N[C@H](COCc1ccccc1)C(=O)N1CCC2(CC1)CN(S(C)(=O)=O)c1ccccc12	14817	cytotoxic, partial curve
CCN(CC)C(=O)[C@@H]1C=C2c3cccc4[nH]cc(c34)C[C@H]2N(C)C1	56634	cytotoxic, partial curve, poor fit
CCCCCCCCOc1ccccc1C(=O)Nc1ccc(C(=O)OCC[N+](C)(CC)CC)cc1	20930	cytotoxic, partial curve
Cc1ccc(N)cc1O	54482	cytotoxic, single point
CNC1CCC(N(Cc2cccc(-c3ccncc3)c2)C(=O)c2sc3ccccc3c2Cl)CC1 (stereo not given)	23484	cytotoxic, partial curve
COc1ccc(-c2oc3c(CC=C(C)C)c(OC4O[C@H](CO)[C@@H](O)[C@H](O)[C@@H]4O)cc(O)c3c(=O)c2OC2O[C@@H](C)[C@H](O)[C@@H](O)[C@@H]2O)cc1 (stereo not given in full)	18654	cytotoxic, partial curve
CC(C)C[C@H](CN)CC(=O)O	23484	cytotoxic, partial curve, poor fit
COc1ccc2c(c1)CC[C@H]1[C@@H]2CC[C@]2(C)[C@@H](NCCCCCCN3C(=O)C=CC3=O)CC[C@H]12	3317	cytotoxic, partial curve
C[C@@H](O[C@H]1OCCN(Cc2n[nH]c(=O)[nH]2)[C@@H]1c1ccc(F)cc1)c1cc(C(F)(F)F)cc(C(F)(F)F)c1	20930	cytotoxic, partial curve
CC(C)(C)c1ccc(O)c(O)c1	34376	cytotoxic, single point
COc1ccc(/C=C/C(=O)c2ccc(OC)cc2OC)cc1	26608	cytotoxic, single point
CN(C)[C@@H](CCOc1cccc2ccccc12)c1ccccc1	16626	cytotoxic, partial curve, poor fit
CCOC(=O)c1c(C(C#N)=CN)c2ccc(Cl)c(Cl)c2n1C	23484	cytotoxic, single point
CN[C@@H](C)C(=O)N[C@H]1CCCC[C@H]2CC[C@@H](C(=O)N[C@@H](c3ccccc3)c3cn(CCCCc4ccc(CCCCn5cc([C@@H](NC(=O)[C@@H]6CC[C@@H]7CCCC[C@H](NC(=O)[C@H](C)NC)C(=O)N76)c6ccccc6)nn5)cc4)nn3)N2C1=O	18654	cytotoxic, partial curve
Cc1c(C)n(Cc2ccc(-c3ccccc3C(=O)O)cc2)c2ccc(C(=O)N[C@@H](C)c3ccc([N+](=O)[O-])cc3)cc12	10.5	cytotoxic, full curve
CC1(C)Cc2c(-c3ccccc3)c(-c3ccc(Cl)cc3)c(CC(=O)O)n2C1	16626	cytotoxic, partial curve
CCOC(=O)Nc1ccc(NCc2ccc(F)cc2)cc1N	11770	cytotoxic, partial curve, poor fit
CC(C)OC(=O)CCCC=CC[C@@H]1[C@H](C=C[C@@H](O)COc2cccc(C(F)(F)F)c2)[C@H](O)C[C@@H]1O	16626	cytotoxic, partial curve
O=C(O)c1c(Cl)c(Cl)c(Cl)c(Cl)c1-c1c2cc(I)c(=O)c(I)c-2oc2c(I)c(O)c(I)cc12	9350	cytotoxic, partial curve
CS(=O)(=O)CCNCc1ccc(-c2ccc3ncnc(Nc4ccc(OCc5cccc(F)c5)c(Cl)c4)c3c2)o1	18837	cytotoxic, single point
CC(C)(C)c1cc(C(=O)O)c(NC(=O)Nc2ccc3[nH]ncc3c2)s1	5899	cytotoxic, partial curve
O=C(NCC1CCCCN1)c1cc(OCC(F)(F)F)ccc1OCC(F)(F)F (stereo not given)	29565	cytotoxic, single point
CC(CCc1ccc(O)cc1)NCCc1ccc(O)c(O)c1 (stereo not given)	2093	cytotoxic, partial curve
Nc1ccccc1N	19331	cytotoxic, partial curve
CS(=O)(=O)CCNCc1ccc(-c2ccc3ncnc(Nc4ccc(OCc5cccc(F)c5)c(Cl)c4)c3c2)o1	13206	cytotoxic, partial curve, poor fit
Cc1ccc(C(=O)N(CCCN)[C@@H](c2oc3cc(Cl)ccc3c(=O)c2Cc2ccccc2)C(C)C)cc1	1049	cytotoxic, full curve
CNCCCCOc1ccccc1Cc1ccccc1	13335	cytotoxic, single point
CCCOc1ccc2nc(NC(=O)OC)[nH]c2c1	13.2	cytotoxic, full curve
C[C@]12C=CC(=O)C=C1CC[C@@H]1[C@@H]2[C@@H](O)C[C@@]2(C)[C@@H]1CC[C@]2(O)C(=O)CO	16626	cytotoxic, partial curve, poor fit
Cc1cc(OCCCS(C)(=O)=O)cc(C)c1-c1cccc(COc2ccc3c(c2)OC[C@H]3CC(=O)O)c1	18654	cytotoxic, partial curve
Cc1ccc(F)c(NC(=O)Nc2ccc(-c3cccc4[nH]nc(N)c34)cc2)c1	5899	cytotoxic, partial curve
COc1cc(N2CCC(N3CCN(C)CC3)CC2)ccc1Nc1ncc(Cl)c(Nc2ccccc2S(=O)(=O)C(C)C)n1	468.6	cytotoxic, full curve, poor fit
Nc1ncnc2c1nc(Cl)n2[C@@H]1O[C@H](CO)[C@@H](O)[C@@H]1O	16626	cytotoxic, partial curve

Some entries from above, unchanged:

compound,potency (nM),curve as filed
CCOC(=O)c1c(C(C#N)=CN)c2ccc(Cl)c(Cl)c2n1C,23484,"cytotoxic, single point"
Cc1c(C)n(Cc2ccc(-c3ccccc3C(=O)O)cc2)c2ccc(C(=O)N[C@@H](C)c3ccc([N+](=O)[O-])cc3)cc12,10.5,"cytotoxic, full curve"
CCN(CC)C(=O)[C@@H]1C=C2c3cccc4[nH]cc(c34)C[C@H]2N(C)C1,56634,"cytotoxic, partial curve, poor fit"
Cc1ccc(F)c(NC(=O)Nc2ccc(-c3cccc4[nH]nc(N)c34)cc2)c1,5899,"cytotoxic, partial curve"
Cc1cc(OCCCS(C)(=O)=O)cc(C)c1-c1cccc(COc2ccc3c(c2)OC[C@H]3CC(=O)O)c1,18654,"cytotoxic, partial curve"

Data taken from PubChem BioAssay AID1347108, deposited by NCATS (2019).